Some of the results follow. Values are raw readings; no control value is given beside them.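 In the initial screen, polymyxin B was used at a concentration that permeabilizes Salmonella's outer membrane but not its inner membrane. Maximum growth was set by DMSO wells with or without polymyxin B. Since plates varied, data were ranked per plate, and compounds giving the lowest OD600 advanced as hits.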
Test system: Salmonella enterica serovar Typhimurium SL1344
Test: bacterial growth OD600 after 18 h with compound and polymyxin B; higher = more bacterial growth (less inhibition)
Conditions: 50 µM, Mueller-Hinton broth

SMILES | bacterial growth OD600 (polymyxin B 1 µg/mL) | bacterial growth OD600 (polymyxin B 0.75 µg/mL)
Cc1nnc(CNC(=O)c2coc(COc3ccc(F)cc3)n2)o1 | 0.951 | 
Cc1ccc2c(c1)CN(CC(=O)NCc1nc3c(s1)CCCC3)CC(c1ccsc1)O2 (configuration not stated) |  | 0.001
O=C(Nc1cccc(-n2cccn2)c1)C1CCCN1C(=O)C1CCCC1 (configuration not stated) | 0.971 | 
C=CCN(CC=C)C(=O)c1cc(COc2ccccc2SC)on1 | 0.667 | 
Cc1csc(CN(C)C(=O)C2CCC(=O)N(Cc3ccc(Cl)cc3)C2)n1 (configuration not stated) | 0.742 | 
CC1(C(=O)N2CCCC2C(=O)Nc2ccc(-c3nc4ccccc4o3)cc2)CC1 (configuration not stated) |  | 0.888
O=C1CCC(CCC(=O)N2CCC(c3ccccc3F)C2)(Cc2cccc3ccccc23)N1 (configuration not stated) |  | 0.073
COc1cccc(CN2CCN(Cc3cccc4nonc34)CC2CCO)c1 (configuration not stated) | 0.82 | 
COc1ccc(OC)c(-c2cc(Cl)c3c(c2)CC(CNC(=O)c2cc(C)oc2C)O3)c1 (configuration not stated) |  | 0.005
CSCCCNC(=O)c1oc2ccc(C)cc2c1C | 0.012 | 
CSc1ccccc1N1C(=O)CN(C(=O)Cc2ccc3c(c2)OCO3)CC1C (configuration not stated) |  | 0.857
O[C@@H]1CN(Cc2ccc3c(c2)OCCO3)CC[C@H]1N1CCN(c2ccccn2)CC1 | 0.842 | 
COc1ccccc1/C=C/CN1CCNC(=O)C1CC(=O)N1CCCN(C=O)CC1 (configuration not stated) | 1.27 | 
Cc1cnc(SCCN2CCOCC2)nc1C1CCCN(C(=O)c2ccc(OC(C)C)cc2)C1 (configuration not stated) |  | 0.842
CCOC(=O)C1(CCCc2ccccc2)CCCN(C(=O)c2cc3ncccn3n2)C1 (configuration not stated) | 1.05 | 
CN(Cc1cnc2ccccn12)C(=O)c1csc2nc(-c3ccccc3)cn12 | 1.27 | 

SMILES | bacterial growth OD600 (polymyxin B 1 µg/mL) | bacterial growth OD600 (polymyxin B 0.75 µg/mL)
CC1CN(C(=O)c2cc(COc3c(F)cccc3F)on2)CCN1C (configuration not stated) |  | 0.842
O=C(CCN1Cc2ccccc2OC(c2ccccc2)C1)NCc1c[nH]nc1-c1ccc(F)cc1 (configuration not stated) |  | 0.944
CN1CCN([C@@H]2CCN(Cc3ccccc3C#Cc3ccccc3)C[C@H]2O)CC1 |  | 0.74
c1ccc(CNc2nc3nonc3nc2NCCc2ccccn2)cc1 | 0.661 | 
O=C1N(C2Cc3ccccc3C2)C[C@@H]2C[C@@H](c3cccn3-c3cccnc3)N3CCC[C@@]123 | 0.001 | 
Cc1ccc(OCCN(C)C(=O)C2CC23CCN(Cc2coc4ccccc4c2=O)CC3)cc1 (configuration not stated) |  | 0.029
Cc1cnc(C(=O)N2CCCC(CCc3ccccc3)C2)cn1 (configuration not stated) |  | 0.881
O=C(NCc1cccc(F)c1)C1CCC(=O)N(CCc2cccc(F)c2)C1 (configuration not stated) | 0.813 | 
COc1ccc(CN2CCN(Cc3cc(F)ccc3F)CC2CCO)c(C)c1C (configuration not stated) | 0.807 | 
CCC(COC)NC(=O)c1cc(OC)ccc1OC1CCN(C2CCCC2)CC1 (configuration not stated) | 0.977 | 
CC(=O)NCC(=O)NC1CC(C)(C)Cc2c1cnn2-c1ccc(F)cc1 (configuration not stated) | 1.1 | 
CC(=O)c1cc(CN2CCCC2C(=O)Nc2cccc(-n3cccn3)c2)cs1 (configuration not stated) |  | 0.918
COc1cc(NC(=O)CCC2CCCN(C(=O)CCn3ccnc3C)C2)cc(OC)c1 (configuration not stated) | 1.05 | 
CC(=O)N1CCC[C@H]1C(=O)N1CCc2onc(-c3cccc(F)c3)c2C1 |  | 0.813
CCOC(=O)C1(CCOc2ccccc2)CCN(Cc2cnc(C)s2)CC1 | 1.07 | 
COc1cc(CC2(CCC(=O)NCc3c(F)cccc3F)CCC(=O)N2)ccc1F (configuration not stated) |  | 0.838

Reformatted with tabs: entries from further up
SMILES	bacterial growth OD600 (polymyxin B 1 µg/mL)	bacterial growth OD600 (polymyxin B 0.75 µg/mL)
COc1cc(NC(=O)CCC2CCCN(C(=O)CCn3ccnc3C)C2)cc(OC)c1 (configuration not stated)	1.05	
COc1cc(CC2(CCC(=O)NCc3c(F)cccc3F)CCC(=O)N2)ccc1F (configuration not stated)		0.838
